Test [1] addresses T1, EGFP-tagged Bacurd1/Kctd13 (UniProt Q8BGV7).
T1 sequence: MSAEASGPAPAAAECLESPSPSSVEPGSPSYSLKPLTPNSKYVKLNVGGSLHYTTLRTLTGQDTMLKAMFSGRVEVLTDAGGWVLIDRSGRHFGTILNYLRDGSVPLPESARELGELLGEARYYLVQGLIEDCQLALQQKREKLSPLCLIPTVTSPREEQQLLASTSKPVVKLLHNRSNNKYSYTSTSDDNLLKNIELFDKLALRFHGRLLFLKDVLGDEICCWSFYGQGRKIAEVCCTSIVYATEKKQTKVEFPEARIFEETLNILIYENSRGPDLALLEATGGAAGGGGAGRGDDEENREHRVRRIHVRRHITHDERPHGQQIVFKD
Description: co-IP; lysates of HEK293T cells transiently transfected; immunoprecipitation with antibodies against EGFP, immunoblot for FLAG; reciprocal immunoprecipitation with FLAG antibodies, immunoblot for EGFP. A general note: Immunoblotting shows a protein as a band on a membrane.

Test [2] has as its target T2, EGFP-tagged Bacurd2/Tnfaip1 (UniProt O70479).
T2 sequence: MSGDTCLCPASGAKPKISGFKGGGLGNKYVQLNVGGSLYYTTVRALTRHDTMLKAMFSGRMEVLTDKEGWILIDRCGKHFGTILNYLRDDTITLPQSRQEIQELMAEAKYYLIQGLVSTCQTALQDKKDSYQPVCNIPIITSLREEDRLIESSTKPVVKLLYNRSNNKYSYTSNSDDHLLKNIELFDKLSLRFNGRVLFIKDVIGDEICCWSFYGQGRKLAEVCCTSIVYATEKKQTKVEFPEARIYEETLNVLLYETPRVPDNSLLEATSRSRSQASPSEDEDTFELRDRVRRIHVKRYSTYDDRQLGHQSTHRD
Described as above.

The results in this text go back to PMC4788816.

Results are given in words; binding and its absence hold for the method and conditions named. In cells and extracts the contact can be indirect. Some results given as binding are weak or reduced against the parent protein; the word gives no strength. Sequences can lack the tags named with a protein.

B1: FLAG-tagged Rnd3 (protein, UniProt P61588 1-244)
chain: MKERRASQKLSSKSIMDPNQNVKCKIVVVGDSQCGKTALLHVFAKDCFPENYVPTVFENYTASFEIDTQRIELSLWDTSGSPYYDNVRPLSYPDSDAVLICFDISRPETLDSVLKKWKGEIQEFCPNTKMLLVGCKSDLRTDVSTLVELSNHRQTPVSYDQGANMAKQIGAATYIECSALQSENSVRDIFHVATLACVNKTNKNVKRNKSQRATKRISHMPSRPELSAVATDLRKDKAKSCTVM
In the case of B1, the binding entry in test [1] and in test [2] was “binds” in each case.

B2: FLAG-tagged Rnd2 (protein, UniProt Q9QYM5 1-227)
chain: MEGQSGRCKIVVVGDAECGKTALLQVFAKDAYPGSYVPTVFENYTASFEIDKRRIELNMWDTSGSSYYDNVRPLAYPDSDAVLICFDISRPETLDSVLKKWQGETQEFCPNAKVVLVGCKLDMRTDLATLRELSKQRLIPVTHEQGTVLAKQVGAVSYVECSSRSSERSVRDVFHVATVASLGRGHRQLRRTDSRRGLQRSTQLSGRPDRGNEGEMHKDRAKSCNLM
Turning to B2, the binding result in test [1] and in test [2] was “binds” in each case.
